These are yes or no findings as the source states them, for the method shown. Binding seen in cells or lysates may run through a third protein. For part of these data: Binding can be weak; no strength is given.
How the values were obtained:
[1] = molecular target: CagV (Helicobacter pylori (endogenous in strain 26695)); test: co-IP; anti‐CagV antibody cross‐linked (DMP) to protein‐A agarose; detergent‐solubilized extracts of wild‐type H. pylori 26695 and ΔcagV/cagV (also of ΔcagT, ΔcagM, Δcagδ); 1× PBS pH 7.4, 2 mM EDTA, 2 mM DTT, 1% TritonX‐100, 0.2% sodium deoxycholate; 4 °C O/N; western blot
[2] = molecular target: MBP‐CagF (Helicobacter pylori); test: pull-down; purified MBP‐tagged bait or MBP alone (10 μg) on amylose–agarose beads, mixed O/N with H. pylori cell extract (1 mg·mL^−1); 50 mM Tris‐HCl, 150 mM NaCl, pH 7.4, 1% TritonX‐100, 0.2% sodium deoxycholate, 2 mM DTT, 2 mM EDTA; western blot; only the target purified
[3] = molecular target: MBP‐CagV (Helicobacter pylori); test: as above

B1: CagZ (protein, UniProt B5Z6P9 1-199)
chain: MELGFNETERQKILDSNKSLMGNANEVRDKFIQNYASSLKDSNDPQDFLRRVQELRINMQKNFISFDVYYNYLNNLVLASYNRCKQEKTFAESTIKNELTLGEFVAEISDNFNNFMCDEVARISDLVASYLPREYLPPFIDGNMMGVAFQILGIDDFGRKLNEIVQDIGTKYIILSKNKTYLTSLERAKLITQLKLNLE
binding [1]: no binding
binding [2]: binds
binding [3]: binds
